Library screening results

The values are deposited in ChEMBL (CHEMBL3988442, “University of Dundee, Small-Polar-MMV Screening Library” (2021)).

Mtb growth Cornell: 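Whole-cell assay for inhibitors of Mycobacterium tuberculosis growth, labelled Cornell in the record; the read-out is not stated. The concentration is filed as 10 mM, unlikely as a test dose, so the dose is not known. Higher means stronger inhibition (inferred from two other growth screens of the library). Of about 53,000 compounds tested this way, about 900 (1.7%) reached 50% or more in at least one test.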
Mtb heat-shock: 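Assay on Mycobacterium tuberculosis, filed only as a heat shock assay from Cornell; the read-out is not stated. The concentration is filed as 10 mM, unlikely as a test dose, so the dose is not known. The record gives no direction; compounds that gave an IC50 in retests scored well above the rest, so higher reads as stronger inhibition. Size under these conditions: about 69,000 compounds, about 930 of them at 50% or above in at least one test.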

Results are given as percent effect. The record does not define 0% and 100%; most values in the screen are far below 50% and negative numbers occur (in some assays of this library far below -100). The compounds are a random part of those screened. A dash means the value is not listed here; it may have been measured.

compound,Mtb growth Cornell,Mtb heat-shock
CCc1nsc(N2CCN(CC(=O)NCc3cccnc3)CC2)n1,-42.22,21.35
O=C(O)C(F)(F)F.O=C1NC2(CCN(C(=O)N3CCOCC3)CC2)CC1c1cccnc1 (stereo unspecified),9.262,-28.06
COc1c(CNCc2ccccc2-n2ccnc2)c(C)nn1C,-,-8.485
Cc1nn(C)cc1CN1CCc2nc3sccc3c(=O)n2CC1,50.52,-18.63
CCC[C@@H]1CN(Cc2ccccc2OC(F)(F)F)C[C@H]1NC(C)=O,-7.061,1.59
CN(C)CC1(O)CCCN(c2noc(-c3ccccc3)n2)CC1 (stereo unspecified),-6.266,13.01
CC(CNC(=O)NCc1ccsc1)CC1(C)OCCO1 (stereo unspecified),-10.39,3.132
Cc1cc(C(=O)N2CCC3(CCNCC3)CC2)c2cccc(C)c2n1,7.133,0.6733
OCCN(Cc1cccnc1)c1cnc2ccccc2n1,22.26,-11.01
CNC(=O)COC(=O)c1cccc(-n2ccc(C(F)(F)F)n2)c1,-,6.565
O=C(CSCC1CC1)N1CCCC2(CCC(=O)N(CC3CC3)C2)C1 (stereo unspecified),-,10.02
O=C(O)C(F)(F)F.O=C(c1cnccn1)N1CCOC2(CCCN(c3ncccc3F)C2)C1 (stereo unspecified),30.82,-8.737
Cc1ccc(S(=O)(=O)N2CCCC(c3n[nH]cc3C(=O)N(C)C)C2)cc1 (stereo unspecified),-14.79,4.344
Cn1cc(CCC(=O)N2CCCN(c3ncccc3C#N)CC2)cn1,-39.17,-20.83
CCSCc1cccc(NC2CCN(C)C2=O)c1 (stereo unspecified),3.819,-5.859
NC(=O)CN1CCC(c2cncc(-c3cccc(Cl)c3)n2)CC1,-19.9,1.472
NC(=O)c1cc(C2CCCN(CCOCC3CC3)C2)n[nH]1 (stereo unspecified),-,1.272
CCn1ccnc1CN1CCCN(C(=O)Cc2ccccc2C)CC1,-,2.4
Cc1nc(C)n(C2CCCN(C(=O)c3cn4cccnc4n3)C2)n1 (stereo unspecified),-3.77,-4.917
Cc1n[nH]c(C2CN(C(=O)c3cc4c(s3)CCC4)CCO2)n1 (stereo unspecified),-,-19.15
N#Cc1ccc(CNCC2CCN(CCO)CC2)cc1,-6.811,-6.725
COc1ccc(F)c(-c2cc(O)nc(N)n2)c1,-11.39,3.609
Cc1n[nH]c(C)c1Sc1ccccc1NC(=O)N1CCCC(C(N)=O)C1 (stereo unspecified),-9.561,-8.01
CCc1n[nH]c(C2CN(C(=O)c3csnn3)CCO2)n1 (stereo unspecified),-,-9.988
Cc1nc(C(=O)N2CCC(Cc3cnc4[nH]ccc4c3)C2)co1 (stereo unspecified),-,-12.97
CC(C)(C)C(=O)Cn1nc(-c2ccccc2F)ccc1=O,-,0.04313
CCCn1cc(NC(=O)Nc2ccc(F)c(C(=O)NC)c2)cn1,69.43,6.467
Cc1cc2n(n1)CC(CNCc1ccccc1-n1cccn1)CN2 (stereo unspecified),-,-27.71
Cc1cc(NC(=O)c2ccc(F)cc2F)n(C)n1,1.005,-16.15
O=C(O)C(F)(F)F.c1cc(CN2CCc3c(nnn3CC3CC3)C2COCC2CC2)co1 (stereo unspecified),23.19,-36.71
Cc1ccnc(Cn2cc(-c3cccc(C(C)N(C)C)c3)nn2)c1 (stereo unspecified),-10.49,-11.8
O=C(c1ccccn1)N1CCCC(c2nccn2CC2CCC2)C1 (stereo unspecified),-16.98,-6.464
CC(C)N1CCOC(CC(=O)N2CC(c3ccncc3)C2)C1 (stereo unspecified),-,13.57
CCC1CN(CCCO)c2ccccc2O1 (stereo unspecified),66.97,-13.42
CCc1ccc(C(=O)N2CC[C@](C)(O)[C@H](C)C2)[nH]1,13.61,4.201
Cn1cnc(S(=O)(=O)NCC2(O)CCc3ccccc32)c1 (stereo unspecified),-19.66,-17.64
CCN(C(=O)CN1CCCN(c2nc(C)ns2)CC1)C1CC1,-,9.744
Cc1cc(-c2nn(C)c(Cl)c2CN2CCOCC2CC(N)=O)no1 (stereo unspecified),-,-19.37
CCc1noc(C)c1C(=O)N1CCCC1c1c(C)nn(C)c1C (stereo unspecified),-,-19.74
O=C(O)CCn1ccc(=O)c2ccccc21,12.88,-3.929
O=C(O)C(F)(F)F.[H][C@@]12OCCN(C(=O)c3ccoc3C)[C@@]1([H])CC[C@H]2OCc1cccnc1,11.67,-7.374
O=C(c1cccnc1)N1CCOCC2(CCN(c3ncccn3)C2)C1 (stereo unspecified),-,-29.07
CC1CCCCN1C(=O)Cn1cc(I)cn1 (stereo unspecified),-,14.88
N[C@@H]1CC[C@H](C(=O)NCCc2nc(-c3ccccc3)cs2)C1,14.02,7.203
CCOC1CCN(C(=O)NCc2ccc(C(=O)N(C)C(C)C)cc2)CC1,8.214,8.14
Cc1[nH]nc(CCC(=O)N2CCc3ncnc(NCCO)c3CC2)c1C,-0.9639,-35.14
CCOc1cncc(NCCc2nnc3ccccn23)n1,-21.66,-5.256
O=C(O)C(F)(F)F.[H][C@@]12CN(CC)CCO[C@]1([H])CN(C(=O)COC1CCCC1)C2,6.86,-22.86
CC(=O)Nc1ccc(C(=O)Nc2cnc3n2CCCC3)c(C)c1,13.95,6.577
Cn1ncc2c1NC(=O)CC2c1ccccc1Br (stereo unspecified),16.6,-6.91
Cc1cccc(C(C(=O)NCCc2nc(C)cc(=O)[nH]2)N(C)C)c1 (stereo unspecified),-2.185,-3.386
[H][C@@]12COC[C@]1(C(=O)NCCOC)CN(c1cc(OC)ncn1)C2,4.675,-13.82
Cc1nc(CN2CCCC(NCc3ccc(Cl)s3)C2)no1 (stereo unspecified),-7.843,-16.87
O=C(O)C(F)(F)F.O=C(c1ccccc1)N1CCOC2(CCN(Cc3cccs3)CC2)C1,-13.13,-35.41
Cc1cnc(C)c(-c2cc(O)c3c(c2)CN(c2ncccn2)CCO3)n1,-28.72,-14.17
Cc1cnc(N2CCC3(CC2)CC(N(C)Cc2ccncc2)C3)nc1.O=C(O)C(F)(F)F.O=C(O)C(F)(F)F,6.888,-15.43
Cc1ccc(OCCC(=O)N(C)CC(=O)Nc2cc(C)on2)c(C)c1,-,-1.274
CN1CCOC(CNCCc2ccccn2)C1 (stereo unspecified),-2.504,9.193
CC(C)COc1cncc(NCCc2nnc3ccccn23)n1,-15.98,-16.39
O=C(Cn1cccn1)NCC1CCCN(Cc2ccccc2)C1 (stereo unspecified),22.99,10.31
O=C(O)C(F)(F)F.[H][C@@]12C[C@@H](c3nc(C)no3)CN(CC3CCCC3)[C@]1([H])CCO2,26.28,-9.956
CNS(=O)(=O)CCn1cc(-c2ccc(OC)c(OC)c2)nn1,0.6137,-4.455
[H][C@@]12C[C@H](C)O[C@]1([H])CCN(C(=O)COCC)C2,-28.97,-2.036
COc1cccc(CNC(=O)c2cccnc2N)c1,-,-15.5
CN(C)C(=O)NCc1ncn2c1CN(S(C)(=O)=O)CCC2,-11.39,10.6
CN1C[C@]2(CC[C@@H](C(=O)O)CC2)Oc2ccccc2C1=O,-5.144,8.949
CC(C)C(C)N(C)Cc1nnc(-c2ccco2)o1 (stereo unspecified),-,17.95
[H][C@]12CCCCN1CCC[C@H]2CNC(=O)CCn1ccc2cc(C)ccc21,-,0.7978
CN(CC1CC1)C(=O)CN(Cc1cccc(O)c1)C1CCC(O)CC1 (stereo unspecified),9.869,-8.462
Cc1nn(-c2ccccn2)c(C)c1[C@@H]1C=C[C@@H](NC(=O)NC(C)C)C1,-,-38.16
Cc1oc(C(=O)O)cc1S(=O)(=O)Nc1ccccc1F,-80.16,-7.141
CC(=O)NCCNC(=O)c1cnc(-c2ccccc2)nc1,1.658,-4.706
CC1(C)OC(=O)N(CCCOc2ccc(F)cc2)C1=O,-0.9254,-4.175

Repeated from the top, 6 entries:

{"compound": "CCc1nsc(N2CCN(CC(=O)NCc3cccnc3)CC2)n1", "Mtb growth Cornell": -42.22, "Mtb heat-shock": 21.35}
{"compound": "O=C(O)C(F)(F)F.O=C1NC2(CCN(C(=O)N3CCOCC3)CC2)CC1c1cccnc1", "stereo": "stereo unspecified", "Mtb growth Cornell": 9.262, "Mtb heat-shock": -28.06}
{"compound": "COc1c(CNCc2ccccc2-n2ccnc2)c(C)nn1C", "Mtb heat-shock": -8.485}
{"compound": "Cc1nn(C)cc1CN1CCc2nc3sccc3c(=O)n2CC1", "Mtb growth Cornell": 50.52, "Mtb heat-shock": -18.63}
{"compound": "CCC[C@@H]1CN(Cc2ccccc2OC(F)(F)F)C[C@H]1NC(C)=O", "Mtb growth Cornell": -7.061, "Mtb heat-shock": 1.59}
{"compound": "CN(C)CC1(O)CCCN(c2noc(-c3ccccc3)n2)CC1", "stereo": "stereo unspecified", "Mtb growth Cornell": -6.266, "Mtb heat-shock": 13.01}